Source: PubChem BioAssay AID2685 (National Center for Advancing Translational Sciences (NCATS), 2010)
Screen size: about 320,000 compounds; about 2,100 (0.66%) were called active. This list was built around the results that the source calls inconclusive (neither active nor inactive); the mix of calls is not that of the screen. Calls come from the whole dose curve; as a rule, active = well fitted inhibition curve with a large enough effect in the signal ratio, with a control signal flat (not every such curve was filed as active); inconclusive = small, poorly fitted or top-dose-only effect, or effect the other way, or a change in a side signal; inactive = flat fitted curve, though single readings scatter; the % refers to the signal ratio. A potency beside an inconclusive call is a rough fit, not a confirmed value.

Experiment: qHTS Assay for Lipid Storage Modulators in Drosophila S3 Cells
Settings: BODIPY lipid droplet fluorescence, 18-24 h, cells fed with added oleic acid; lipid storage change, negative = inhibition: at 46.1 µM (top of the series) unless noted
Summary of the method: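 Drosophila S3 cells got compounds at several concentrations plus oleic acid (400 uM solution). Laser-scanning cytometry with 488 nm excitation read lipid droplets at 500-530 nm and cells at 575-640 nm. Percent activity was relative to 20 uM Triacsin C.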
% is set by controls: 0 for no effect and ±100 for the full control effect; potency is the fitted concentration of half-maximal effect.

Q: For `CC(=O)N1c2ccccc2Nc2ccccc21`, which lipid storage change, negative = inhibition is on record?
A: Its lipid storage change, negative = inhibition is inconclusive: 28.2%.

Q: Which Potency does the source give for `CCCSc1ncnc2sc(C)c(C)c12` here?
A: Its Potency is inconclusive: 32.6 µM [falling, single point].

Q: For `COc1cc(F)cc(C2=CC(=O)C[C@H](c3ccc(F)cc3)C2)c1`, which lipid storage change, negative = inhibition is on record?
A: The lipid storage change, negative = inhibition was inconclusive: 17.3%.

Q: With `O=C1Nc2ccccc2/C1=C/c1ccc([N+](=O)[O-])cc1` as the compound, how does the lipid storage change, negative = inhibition read?
A: The lipid storage change, negative = inhibition was inconclusive: -23.4%.

Q: With `Cc1cccc(CS(=O)(=O)Cc2ccc(C(=O)NC3CCCC3)o2)c1` as the compound, how does the lipid storage change, negative = inhibition read?
A: The lipid storage change, negative = inhibition was inconclusive: -69.4%.

Q: For `O=S(=O)(NC1CCc2ccccc21)c1ccc(S(=O)(=O)N2CCCC2)cc1` (configuration not stated), which Potency is on record?
A: The Potency was inconclusive: 10.3 µM [activator, partial curve].

Q: With `O=C(CS(=O)(=O)Nc1ccc(F)cc1Cl)Nc1ccc(F)cc1Cl` as the compound, how does the lipid storage change, negative = inhibition read?
A: Its lipid storage change, negative = inhibition is inconclusive: -50.5%.

Q: For `O=C(O)c1cn(CCOc2ccccc2Cl)c2ccccc12`, which lipid storage change, negative = inhibition is on record?
A: Its lipid storage change, negative = inhibition is inconclusive: 4.77%.

Q: Which lipid storage change, negative = inhibition does the source give for `O=C(CNS(=O)(=O)c1ccccc1)N1CCCC1` here?
A: The lipid storage change, negative = inhibition was inconclusive: 6.81%.

Q: For `COc1cc(S(=O)(=O)N(Cc2cccnc2)Cc2cccc(OC)c2OC)ccc1-n1cnnn1`, which lipid storage change, negative = inhibition is on record?
A: Its lipid storage change, negative = inhibition is “inactive”.

Q: Which lipid storage change, negative = inhibition does the source give for `Cc1cc(C(=O)N2CCN(c3ccc([N+](=O)[O-])cc3)CC2)c(C)o1` here?
A: Its lipid storage change, negative = inhibition is inconclusive: 25.8%.

Q: Which lipid storage change, negative = inhibition does the source give for `COC(=O)c1c(CSc2cccc(C)c2)noc1C(=O)NCc1ccco1` here?
A: Its lipid storage change, negative = inhibition is inconclusive: -21.5%.

Q: Which lipid storage change, negative = inhibition does the source give for `COc1cc(C(=O)O[C@H]2C/C(C)=C/CC[C@]3(C)O[C@@H]3C(O)C2C(C)C)cc(OC)c1OC` (some centres not stated) here?
A: Its lipid storage change, negative = inhibition is inconclusive: -17.9%.

Q: For `CC(C)Oc1ccc(C(=O)Nc2cc(S(=O)(=O)N3CCOCC3)ccc2N2CCOCC2)cc1`, which lipid storage change, negative = inhibition is on record?
A: The lipid storage change, negative = inhibition was “inconclusive”.

Q: With `Cc1cc(C)c(NC(=O)CSc2nccn2C)c(C)c1` as the compound, how does the lipid storage change, negative = inhibition read?
A: The lipid storage change, negative = inhibition was inconclusive: 19%.

Q: With `CCOc1ccccc1CN(CCc1ccc2c(c1)OCO2)Cc1ccccn1` as the compound, how does the lipid storage change, negative = inhibition read?
A: Its lipid storage change, negative = inhibition is inconclusive: 58.5%.

Q: With `COc1ccc(NC(=O)CCCCC(=O)Nc2ccc(OC)cc2)cc1` as the compound, how does the Potency read?
A: Its Potency is inconclusive: 29.1 µM [falling, single point].

Q: With `O=C(CSc1n[nH]c(=O)n1Cc1ccccc1)Nc1ccc(N2CCOCC2)cc1` as the compound, how does the lipid storage change, negative = inhibition read?
A: The lipid storage change, negative = inhibition was “inconclusive”.

Q: With `C=CCN(CC=C)S(=O)(=O)c1ccc(F)cc1` as the compound, how does the lipid storage change, negative = inhibition read?
A: The lipid storage change, negative = inhibition was inconclusive: -3.65%.

Q: For `CC(C)(C)c1ccc(-c2nc(C#N)c(N3CCC(C(N)=O)CC3)o2)cc1`, which Potency is on record?
A: Its Potency is inconclusive: 23.1 µM [falling, single point].

Q: With `O=C(NCCCn1ccnc1)c1noc2c1CCc1ccccc1-2` as the compound, how does the lipid storage change, negative = inhibition read?
A: Its lipid storage change, negative = inhibition is inconclusive: -5.56%.

Q: For `CC1(C)Cc2c(c(N3CCOCC3)nc3snc(N)c23)CO1`, which Potency is on record?
A: Its Potency is inconclusive: 3.66 µM [falling, single point].

Q: With `COC(=O)Cc1cc(=O)n2[nH]c(SC)nc2n1` as the compound, how does the lipid storage change, negative = inhibition read?
A: Its lipid storage change, negative = inhibition is inconclusive: -13.3%.

Q: With `O=C(NC(Cc1ccccc1)C(=O)O)/C(=C/c1ccccc1)NC(=O)c1cccc(Br)c1` (configuration not stated) as the compound, how does the lipid storage change, negative = inhibition read?
A: The lipid storage change, negative = inhibition was inconclusive: -2.28%.

Q: Which Potency does the source give for `C=CCN(CC=C)C(=S)NC(=O)c1ccc([N+](=O)[O-])cc1` here?
A: Its Potency is inconclusive: 29.1 µM [falling, single point].

Q: For `Cc1cc2cc(CCNC(=O)c3ccc(C)c([N+](=O)[O-])c3)c(=O)[nH]c2cc1C`, which lipid storage change, negative = inhibition is on record?
A: Its lipid storage change, negative = inhibition is inconclusive: -32.8%.

Q: For `Nc1c(C(=O)O)cnn1-c1ccc([N+](=O)[O-])cc1`, which lipid storage change, negative = inhibition is on record?
A: Its lipid storage change, negative = inhibition is inconclusive: -22.2%.

Q: Which lipid storage change, negative = inhibition does the source give for `CC(C)CCn1c(N2CCC(C(N)=O)CC2)nc2c1c(=O)[nH]c(=O)n2C` here?
A: The lipid storage change, negative = inhibition was inconclusive: -48.7%.

Q: With `CCCCOC(=O)C1C2C=CC3(CN(CCc4ccccc4)C(=O)C13)O2` (configuration not stated) as the compound, how does the lipid storage change, negative = inhibition read?
A: The lipid storage change, negative = inhibition was “inactive”.

Q: For `CC(=O)Nc1ccc(S(=O)(=O)N2CCC(C(=O)O)(c3ccccc3)CC2)cc1`, which Potency is on record?
A: Its Potency is inconclusive: 29.1 µM [activator, single point].

Q: Which Potency does the source give for `CCc1nccn1C(=O)c1cnn2c(C(F)F)cc(-c3ccccc3)nc12` here?
A: The Potency was inconclusive: 20.6 µM [falling, single point].

Q: With `O=C(Cc1ccccc1)Nc1ccccc1C(=O)N1CCCCC1` as the compound, how does the lipid storage change, negative = inhibition read?
A: The lipid storage change, negative = inhibition was inconclusive: -36.2% [at 0.00295 µM].

Q: Which lipid storage change, negative = inhibition does the source give for `O=C(COC(=O)c1c2ccccc2cc2ccccc12)Nc1ncc(C(F)(F)F)cc1Cl` here?
A: Its lipid storage change, negative = inhibition is inconclusive: -0.793%.

Q: For `O=C(Cc1ccc(Cl)cc1)NNS(=O)(=O)c1ccc([N+](=O)[O-])cc1`, which lipid storage change, negative = inhibition is on record?
A: The lipid storage change, negative = inhibition was “inactive”.

Q: Which lipid storage change, negative = inhibition does the source give for `O=C(NCc1ccco1)c1ccc(=O)[nH]n1` here?
A: The lipid storage change, negative = inhibition was inconclusive: -44.4%.

Q: With `CC(=O)c1cccc(N(C(=O)c2ccccn2)C(C(=O)NC2CCCCC2)c2cccs2)c1` (configuration not stated) as the compound, how does the lipid storage change, negative = inhibition read?
A: The lipid storage change, negative = inhibition was inconclusive: -31.1%.

Q: With `O=C(/C=C/c1cccc(Cl)c1)Nc1ccncc1` as the compound, how does the lipid storage change, negative = inhibition read?
A: The lipid storage change, negative = inhibition was inconclusive: -1.06%.

Q: With `O=C(Nc1ccc2c(c1)OCCO2)C(=O)NC1CC1` as the compound, how does the Potency read?
A: The Potency was inconclusive: 29.1 µM [activator, single point].

Q: Which lipid storage change, negative = inhibition does the source give for `COc1cccc(C2CC(=O)Nc3c2c(=O)n(C)c(=O)n3C)c1OC` (configuration not stated) here?
A: The lipid storage change, negative = inhibition was inconclusive: -14.8%.

Q: Which lipid storage change, negative = inhibition does the source give for `CCNC(=S)NS(=O)(=O)c1ccc(CC)cc1` here?
A: Its lipid storage change, negative = inhibition is “inactive”.

Q: Which lipid storage change, negative = inhibition does the source give for `O=C(CCS(=O)(=O)c1ccc2c(c1)NC(=O)CS2)NCc1cccs1` here?
A: The lipid storage change, negative = inhibition was inconclusive: 10.3%.

Q: For `CCCCC(CC(O)COCCC)c1n[nH]c(=S)n1-c1ccccc1` (configuration not stated), which lipid storage change, negative = inhibition is on record?
A: Its lipid storage change, negative = inhibition is inconclusive: 29.9%.

Q: Which lipid storage change, negative = inhibition does the source give for `CSc1ccc(/C=C(\C#N)C(=O)NC2CCCCC2C)cc1` (configuration not stated) here?
A: The lipid storage change, negative = inhibition was inconclusive: -41.2%.

Q: With `O=C(CSc1nccn1-c1ccccc1)NO` as the compound, how does the lipid storage change, negative = inhibition read?
A: Its lipid storage change, negative = inhibition is inconclusive: -29.5%.

Q: Which Potency does the source give for `CC(=O)NCc1ccc(-c2csc(-c3cccs3)n2)cc1` here?
A: The Potency was inconclusive: 0.13 µM [activator, partial curve, poor fit].

Q: Which Potency does the source give for `Cc1cc(Nc2cccc(Cl)c2)c2ccccc2n1` here?
A: Its Potency is inconclusive: 13 µM [falling, single point].

Q: With `CN1CCN(C(=O)/C(=C/c2ccc([N+](=O)[O-])cc2)NC(=O)c2ccccc2)CC1` as the compound, how does the lipid storage change, negative = inhibition read?
A: Its lipid storage change, negative = inhibition is inconclusive: -87.7%.

Q: Which lipid storage change, negative = inhibition does the source give for `CN(CC(=O)Nc1cccc(F)c1)C(=O)c1ccncc1` here?
A: Its lipid storage change, negative = inhibition is inconclusive: -30.9% [at 0.00295 µM].

Q: Which lipid storage change, negative = inhibition does the source give for `O=C(CCSc1ccccc1)Nc1ccccc1C(=O)N1CCCC1` here?
A: The lipid storage change, negative = inhibition was “inactive”.

Q: For `CCOC(=O)c1ccccc1NS(=O)(=O)c1cnn(CC)c1C`, which lipid storage change, negative = inhibition is on record?
A: The lipid storage change, negative = inhibition was inconclusive: 53%.

Q: For `CC1(c2ccc3c(c2)OCCO3)NC(=O)N(CC(=O)Nc2ccccc2SCC#N)C1=O` (configuration not stated), which lipid storage change, negative = inhibition is on record?
A: The lipid storage change, negative = inhibition was inconclusive: -91.4%.

Q: Which Potency does the source give for `Cc1nn(CC(=O)c2ccc(Br)s2)c(C)c1[N+](=O)[O-]` here?
A: Its Potency is inconclusive: 11.6 µM [activator, partial curve].
